# Test results from PubChem BioAssay AID1961 (Sanford-Burnham Center for Chemical Genomics, 2009).
# “And” between values parts separate entries of the source, which are not always exact repeats. Equal entries are not always repeated. This is one part of the list.
# Test: selective activators of receptor GPR55 – imaging, U2OS cells, beta-arrestin-GFP redistribution, primary screen (AID 1961);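 also: U2OS osteosarcoma cells stably expressing GPR55 and beta-arrestin-GFP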
# Conditions: measured here: cytotoxicity, cells analyzed, at 10 µM
row,Structure (SMILES),cell count
1,O=P(Nc1nccs1)(Oc1ccccc1)Oc1ccccc1,234 cells
2,O=P(Nc1nccs1)(c1ccccc1)c1nc2ccccc2s1 (configuration not stated),380 cells
3,CCOP1(=S)c2c(C)nn(CCC#N)c2N=C(c2ccccc2F)N1C (configuration not stated),373 cells
4,O=C(O)c1cccc(Nc2c([N+](=O)[O-])cc([N+](=O)[O-])cc2[N+](=O)[O-])c1,342 cells
5,CS(=O)(=O)c1cc([N+](=O)[O-])c2no[n+]([O-])c2c1,377 cells
6,Nc1ccccc1[As](=O)(O)c1ccccc1,383 cells
7,O=C(O)COc1ccc([As](=O)(O)O)cc1[N+](=O)[O-],335 cells
8,NC(=O)Nc1ccc([As](=O)(O)O)cc1,340 cells
9,CCOP1(=S)c2c(C)nn(CCC#N)c2N=C(c2ccc(F)cc2)N1C (configuration not stated),358 cells
10,CN(C(=O)Cc1ccccc1)[C@@H]1CC[C@]2(CCCO2)C[C@H]1N1CCCC1,342 cells
11,CC1=NCCc2c1[nH]c1ccccc21.O=[N+]([O-])c1cc([N+](=O)[O-])c(O)c([N+](=O)[O-])c1,291 cells
12,O=[N+]([O-])c1ccc2c(c1)nnn2O,318 cells
13,O=C(OC1CN2CCC1CC2)c1ccc(Cl)cc1 (configuration not stated),381 cells
14,CS(=O)(=O)c1ccc(Cl)c(NC(=O)COC(=O)C(O)(c2ccccc2)c2ccccc2)c1,357 cells
15,COc1ccccc1OP(C)(=O)Nc1cccc(Br)c1 (configuration not stated),364 cells
16,O=[As](O)(O)c1cccnc1,367 cells
17,COc1cc(C(=O)NCC2(N3CCOCC3)CCCCC2)cc(Cl)c1OC(C)C,261 cells
18,Cc1cc(C)cc(OP(C)(=O)Nc2ccc(C)cc2C)c1 (configuration not stated),352 cells
19,Cc1cccc(OCC(=O)OC2CN3CCC2CC3)c1 (configuration not stated),327 cells
20,O=[As](O)(c1cccc(O)c1)c1cccc(O)c1,371 cells
21,CCOC(=O)c1ccc(NP(C)(=O)Oc2cc(C)cc(C)c2)cc1 (configuration not stated),334 cells
22,Nc1cccc2c([As](=O)(O)O)cccc12,358 cells
23,Cc1ccc(NCCc2c([N+](=O)[O-])cc([N+](=O)[O-])cc2[N+](=O)[O-])cc1,294 cells
24,Cc1cc(C)cc(OP(C)(=O)Nc2ccccn2)c1 (configuration not stated),324 cells

row,Structure (SMILES),cell count
1,CP(=O)(Nc1cccc(Br)c1)Oc1ccccc1 (configuration not stated),245 cells
2,Cc1ccc(C)c(NP(C)(=O)Oc2ccccc2)c1 (configuration not stated),320 cells
3,CCCOP(=S)(Nc1nc(N)cc(=O)[nH]1)OCCC,335 cells
4,CCOP(=O)(Nc1cccc2ccccc12)OCC,350 cells
5,O=[N+]([O-])c1cc([N+](=O)[O-])c(-n2nnc3ccccc32)c([N+](=O)[O-])c1,211 cells
6,CCOP(=O)(NC(=NC(C)c1ccccc1)NC(C)c1ccccc1)OCC (configuration not stated),346 cells
7,O=P1(Nc2ccccn2)COc2ccccc2OC1,327 cells
8,CCC1=CC2Cc3nc4ccc(Cl)cc4c(N)c3C(C1)C2 (configuration not stated),378 cells
9,CCOP(=O)(Nc1ccc(C)cn1)OCC,332 cells
10,CC(C)(C)C(=O)NC(Sc1ncccn1)C(Cl)(Cl)Cl (configuration not stated),348 cells
11,Clc1n[nH]nc1-c1nn[nH][15n]1,403 cells
12,CC(C)/C=N\N=C(\N)N[N+](=O)[O-],247 cells
13,CN(C(=O)Cc1ccc(Cl)c(Cl)c1)[C@@H]1CCCC[C@H]1N1CCCC1,339 cells
14,Cc1nc2ccc3ccccc3c2s1.O=[N+]([O-])c1cc([N+](=O)[O-])c(O)c([N+](=O)[O-])c1,278 cells
15,O=[As](O)(c1ccccc1Br)c1ccccc1Br,334 cells
16,CC1CCC(C(C)C)C(OP(=O)(Nc2ccccn2)c2ccccc2)C1 (configuration not stated),235 cells
17,Cc1ccc(C(=O)OC2CN3CCC2CC3)cc1 (configuration not stated),379 cells
18,Cc1nn(-c2ccccc2)c2c1P(=O)(N1CCOCC1)N(C)C(c1ccccc1)=N2 (configuration not stated),386 cells
19,COc1cc(C2NCCC3(OCCO3)C2(C)C)cc(OC)c1OC.O=[N+]([O-])c1cc([N+](=O)[O-])c(O)c([N+](=O)[O-])c1 (configuration not stated),327 cells
20,CCOC(=O)C(CC)C1=NC(C)(C)Cc2ccccc21.O=[N+]([O-])c1cc([N+](=O)[O-])c(O)c([N+](=O)[O-])c1 (configuration not stated),329 cells
21,CN(C)C1(CNC(=O)c2ccc(S(C)(=O)=O)cc2)CCCCC1,367 cells
22,O=[N+]([O-])c1cc([N+](=O)[O-])c(Nc2nnnn2CCO)c([N+](=O)[O-])c1,346 cells
23,O=C(/C=C/c1ccccc1)OC1CN2CCC1CC2 (configuration not stated),320 cells
24,COc1ccccc1OP(C)(=O)Nc1c(C)cccc1C (configuration not stated),349 cells

row,Structure (SMILES),cell count
1,CN1CCCCC1COC(=O)C1(O)c2ccccc2CCc2ccccc21 (configuration not stated),262 cells
2,O=P1(Nc2ncccn2)COc2ccccc2OC1,346 cells
3,CCCOc1ccc(NP(C)(=O)Oc2ccc(Cl)cc2)cc1 (configuration not stated),230 cells
4,Nc1cccc([As](=O)(O)c2ccccc2)c1,330 cells
5,CP(=O)(Nc1ccc(SC(F)(F)F)cc1)Oc1ccccc1 (configuration not stated),340 cells
6,O=[As](O)(c1cccs1)c1cccs1,315 cells
7,Cc1ccc(OCC(=O)OC2CN3CCC2CC3)cc1 (configuration not stated),305 cells
8,O=P1(Nc2ccc(Br)cn2)COc2ccccc2OC1,343 cells
9,CCOC(=O)Nc1ccc([As](=O)(O)O)c(O)c1,361 cells
10,Cc1cc(SC(NC(=O)c2ccccc2)C(Cl)(Cl)Cl)nc(C(C)C)n1 (configuration not stated),285 cells
11,CCCCOc1ccc(C(=O)NCC2(N3CCCCC3)CCCCC2)cc1OC,380 cells
12,CP(=S)(Nn1cnnc1)Oc1ccccc1 (configuration not stated),362 cells
13,CCOC(=O)Nc1cccc([As](=O)(O)O)c1,362 cells
14,COc1ccccc1OP(C)(=O)Nc1ccccc1 (configuration not stated),273 cells
15,O=P(Nc1ccccn1)(c1cccc2ccccc12)c1cccc2ccccc12,432 cells
16,Cc1cc(SC(NC=O)C(Cl)(Cl)Cl)ncn1 (configuration not stated),280 cells
17,O=[N+]([O-])c1ccc(Nc2ccc(Oc3ccc([N+](=O)[O-])cc3[N+](=O)[O-])cc2)c([N+](=O)[O-])c1,374 cells
18,CP(=O)(Nc1ccccc1Br)Oc1ccccc1 (configuration not stated),354 cells
19,CP(=O)(Oc1ccccc1)OC(c1ccccc1)C(F)(F)F (configuration not stated),251 cells
20,COP1(=S)c2c(C)nn(CCC#N)c2N=C(c2ccc(F)cc2)N1C (configuration not stated),396 cells
21,Cc1cccc(C)c1OP(C)(=O)Nc1ccc(SC(F)(F)F)cc1 (configuration not stated),298 cells
22,CP(=O)(Nc1ccc(SC(F)(F)F)cc1)Oc1ccc(Cl)cc1 (configuration not stated),369 cells
23,O=C(Nc1ccncc1[N+](=O)[O-])c1ccc([N+](=O)[O-])cc1[N+](=O)[O-],378 cells
24,Cc1cc(C)cc(OP(C)(=O)Nc2ccc(SC(F)(F)F)cc2)c1 (configuration not stated),276 cells

row,Structure (SMILES),cell count
1,O=C(COc1ccccc1)OC1CN2CCC1CC2 (configuration not stated),286 cells
2,CP(=O)(NC(=O)Nc1ccccc1)Oc1ccccc1 (configuration not stated),341 cells
3,CCc1ccc(OP(C)(=O)N2CCN(c3ccc([N+](=O)[O-])cc3)CC2)cc1 (configuration not stated),353 cells
4,CCOP(C)(=S)SCC(=O)NC(C)C(=O)O (configuration not stated),299 cells
5,O=C(OC1CN2CCC1CC2)c1cccc([N+](=O)[O-])c1 (configuration not stated),331 cells
6,CCOC(=O)c1ccc(NP(C)(=O)Oc2ccc(OC)cc2)cc1 (configuration not stated),297 cells
7,CCOC(=O)c1ccc(NC(=O)C(C)(CCl)SC)cc1 (configuration not stated),349 cells
8,CCC(C)N(CC(C)C)C(=S)SC(NC(C)=O)C(Cl)(Cl)Cl (configuration not stated),343 cells
9,CP(=O)(Nc1ccccn1)Oc1ccc(Cl)cc1 (configuration not stated),360 cells
10,Cc1c2c(nc3ccccc13)SC(C(Cl)Cl)C2 (configuration not stated),296 cells
11,CCN(CC)CCCOC(=O)C(O)(c1ccccc1)c1ccccc1,237 cells
12,Cc1cc(=O)[nH]c(N[N+](=O)[O-])n1,185 cells
13,O=C(OC1CN2CCC1CC2)C12CC3CC(CC(C3)C1)C2 (configuration not stated),383 cells
14,COc1cc(I)ccc1[As](=O)(O)O,363 cells
15,COc1ccc2nc(NP(=O)(c3ccccc3)c3ccccc3)sc2c1,240 cells
16,COc1ccc(N/C(=N/P(=O)(N2CCOCC2)N2CCOCC2)N2CCOCC2)cc1,263 cells
17,C[As](=O)(O)c1cccc(C(=O)O)c1,385 cells
18,O=[As](O)(c1ccc(O)cc1)c1ccccc1O,388 cells
19,Cc1cccc(C)c1OP(C)(N)=O (configuration not stated),199 cells
20,Cc1ccc(OP(=O)(Nc2ccc([N+](=O)[O-])cn2)Oc2ccc(C)cc2)cc1,355 cells
21,CC(C)(C)c1ccc(OP(C)(=O)Nc2ccc(SC(F)(F)F)cc2)cc1 (configuration not stated),344 cells
22,O=[N+]([O-])c1ccc2c(c1)C=Nc1ccccc1O2,243 cells
23,Cc1ccc2nc3c(c(C)c2c1)CC(C(Cl)Cl)S3 (configuration not stated),356 cells
24,ClCCSc1nnc(-c2cccnc2)o1,292 cells

row,Structure (SMILES),cell count
1,CCOC(=O)c1ccc(NP(C)(=O)Oc2ccccc2)cc1 (configuration not stated),355 cells
2,CC(C)c1ccc(OP(=O)(Nc2ccccn2)Oc2ccccc2F)cc1 (configuration not stated),343 cells
3,Cc1ccc(NP(C)(=O)Oc2ccccc2)c(C)c1 (configuration not stated),375 cells
4,COc1ccccc1OP(C)(=O)Nc1ccc(C)cc1 (configuration not stated),312 cells
5,COc1ccc(OP(C)(=O)Nc2cccc(F)c2)cc1 (configuration not stated),330 cells
6,O=[N+]([O-])c1cc([N+](=O)[O-])c(-c2ccn[nH]2)s1,334 cells
7,COc1ccccc1OP(C)(=O)Nc1cc(Cl)ccc1C (configuration not stated),420 cells
8,CC(C)NC(=O)NP(=O)(Oc1ccccc1)Oc1ccccc1,261 cells
9,CCN(CC)C(=S)SC(NC=O)C(Cl)(Cl)Cl (configuration not stated),444 cells
10,Cc1cc(C)cc(OP(C)(N)=O)c1 (configuration not stated),222 cells
11,O=P(Nc1nc2ccc(Cl)cc2s1)(c1ccccc1)c1ccccc1,351 cells
12,Cc1cc(C)cc(OP(C)(=O)Nc2cccc(C(F)(F)F)c2)c1 (configuration not stated),393 cells
13,CC(=O)Nc1ccc([As](=O)(O)O)cc1,322 cells
14,O=C(O)c1ccccc1[As](=O)(O)O,380 cells
15,COc1ccc(OP(C)(=O)Nc2ccccc2Br)cc1 (configuration not stated),268 cells
16,COc1ccccc1OP(C)(=O)Nc1ccc(C)c(C)c1 (configuration not stated),312 cells
17,Cc1ccc(NP(=O)(Oc2ccccc2F)Oc2ccccc2F)nc1,285 cells
18,Cc1cc(SC(NC(=O)c2ccc(F)cc2)C(Cl)(Cl)Cl)ncn1 (configuration not stated),287 cells
19,CCOP(=O)(Nc1ccccc1)OCC,348 cells and 317 cells
20,O=[N+]([O-])c1cc([N+](=O)[O-])c(CCN2CCOCC2)c([N+](=O)[O-])c1,356 cells
21,Cc1nc2ccc3ccccc3c2o1.O=[N+]([O-])c1cc([N+](=O)[O-])c(O)c([N+](=O)[O-])c1,421 cells
